Test results: PubChem BioAssay (NCATS)
Several values for one entry are separate records, joined by “and”; a condition that tells them apart may be missing. Equal entries are not always repeated. Some of the results follow. These are further read-outs of the screen, such as a control signal, another cell line or another target. No call is given for them. Compounds called inactive in the main read-out are mostly missing here. Words in brackets tell the shape of the fitted curve; partial curves, single points and poor fits give uncertain potencies.

Test: qHTS assay for small molecule antagonists of androgen receptor signaling (AID 588516)
Settings: AR-UAS-bla HEK293, beta-lactamase ratio, antagonist mode, 16 h; measured here: W460 blue channel fit
In short: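 Antagonist-mode qHTS: inhibition of R1881 (10 nM)-driven beta-lactamase expression in GripTite HEK 293 cells is measured after 16 h; values are Hill-derived IC50s normalized between R1881 and DMSO wells.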

Row | Structure (SMILES) | AC50
1 | CC(COc1ccc(Oc2ccccc2)cc1)Oc1ccccn1 (stereo not drawn) | 63.1 µM [falling, partial curve, poor fit]
2 | Nc1ccc([N+](=O)[O-])cc1Cl | 50.1 µM [falling, single point]
3 | CCCCCCCCOC(=O)c1ccccc1C(=O)OCCCCCCCC | 0.0316 µM [falling, full curve, poor fit]
4 | Nc1ccc([N+](=O)[O-])cc1[N+](=O)[O-] | 89.1 µM [falling, partial curve, poor fit]
5 | CC(C)OC(=O)C(O)(c1ccc(Br)cc1)c1ccc(Br)cc1 | 50.1 µM [falling, partial curve, poor fit]
6 | O=[N+]([O-])c1ccc(Cl)c([N+](=O)[O-])c1 | 50.1 µM [falling, single point]
7 | CCOc1nc(NC)nc(NC(=O)NS(=O)(=O)c2ccccc2C(=O)OC)n1 | 0.00141 µM [falling, full curve, poor fit]
8 | Nc1c(Br)cc([N+](=O)[O-])cc1[N+](=O)[O-] | 22.4 µM [falling, partial curve, poor fit]
9 | Cc1cnc(C2=NC(C)(C(C)C)C(=O)N2)c(C(=O)O)c1 (stereo not drawn) | 11.2 µM [rising, partial curve, poor fit]
10 | C=CC(=O)OCCCCCC(C)C | 25.1 µM [rising, full curve, poor fit]
11 | Nc1ccccc1Cl | 0.0398 µM [falling, full curve, poor fit]

Test: qHTS assay for small molecule antagonists of glucocorticoid receptor signaling (AID 588533)
Settings: HeLa MMTV-bla, GRE beta-lactamase ratio, antagonist mode, 18 h; measured here: W530 channel AC50

Row | Structure (SMILES) | AC50
12 | CC(C)(C)c1cc(O)ccc1O | 28.2 µM [falling, partial curve, poor fit] and 44.7 µM [falling, single point]
13 | CC(=O)Oc1ccccc1C(=O)Nc1ncc([N+](=O)[O-])s1 | 2.51 µM [falling, full curve]
14 | Nc1ccc(-c2ccc(N)c(O)c2)cc1O | 50.1 µM [falling, partial curve, poor fit]
15 | CCC[CH2][Sn]([CH2]CCC)([CH2]CCC)[O][Sn]([CH2]CCC)([CH2]CCC)[CH2]CCC | 44.7 µM [falling, partial curve, poor fit]
16 | Fc1ccc(Oc2ccnc3cc(Cl)cc(Cl)c23)cc1 | 35.5 µM [falling, partial curve, poor fit]
17 | CC1(C)[C@H](C(=O)O[C@H](C#N)c2cccc(Oc3ccccc3)c2)[C@@H]1C=C(Br)Br | 44.7 µM [falling, single point]
18 | Oc1ccc(Cl)cc1Sc1cc(Cl)ccc1O | 17.8 µM [falling, full curve, poor fit]
19 | Clc1ccc(COC(Cn2ccnc2)c2ccc(Cl)cc2Cl)cc1 (stereo not drawn) | 35.5 µM [falling, partial curve, poor fit]
20 | CCC[CH2][Sn]([Cl])([CH2]CCC)[CH2]CCC | 50.1 µM [falling, single point]
21 | CC1(c2ccc(Oc3ccccc3)cc2)OC(=O)N(Nc2ccccc2)C1=O (stereo not drawn) | 3.16 µM [rising, full curve, poor fit]
22 | ClC=CCl | 3.16 µM [falling, partial curve, poor fit]
23 | Clc1ccc(C(c2ccc(Cl)cc2)C(Cl)Cl)cc1 | 39.8 µM [falling, partial curve, poor fit]
24 | CC[C@H](C)[C@H]1O[C@]2(C=C[C@@H]1C)C[C@@H]1C[C@@H](C/C=C(\C)[C@@H](O[C@H]3C[C@H](OC)[C@@H](O[C@H]4C[C@H](OC)[C@@H](O)[C@H](C)O4)[C@H](C)O3)[C@@H](C)/C=C/C=C3\CO[C@@H]4[C@H](O)C(C)=C[C@@H](C(=O)O1)[C@]34O)O2 | 5.01 µM [rising, full curve, poor fit]
25 | O=C(O)C(Br)Br | 28.2 µM [falling, partial curve, poor fit]
26 | COc1cnc(OC)n2nc(NS(=O)(=O)c3c(OCC(F)F)cccc3C(F)(F)F)nc12 | 31.6 µM [rising, single point]
27 | CN1C[C@H](C(=O)N[C@]2(C)O[C@@]3(O)[C@@H]4CCCN4C(=O)[C@H](Cc4ccccc4)N3C2=O)C=C2c3cccc4[nH]cc(c34)C[C@H]21 | 50.1 µM [falling, single point]
28 | N#Cc1cc(I)c(O)c(I)c1 | 28.2 µM [falling, single point]
29 | CSC1=N[C@@](C)(c2ccccc2)C(=O)N1Nc1ccccc1 | 3.16 µM [falling, full curve, poor fit]
30 | c1ccc2c(c1)-c1cccc3c1c-2cc1ccccc13 | 39.8 µM [rising, partial curve, poor fit]
31 | O=C(Nc1ccc(Cl)cc1)Nc1ccc(Cl)c(Cl)c1 | 6.31 µM [falling, partial curve, poor fit]
32 | CCOCn1c(-c2ccc(Cl)cc2)c(C#N)c(Br)c1C(F)(F)F | 0.794 µM [falling, full curve, poor fit]
33 | CN(C)c1ccc(N=O)cc1 | 31.6 µM [falling, partial curve, poor fit]
34 | CS(=O)(=O)c1cc(C(F)(F)F)ccc1C(=O)c1cnoc1C1CC1 | 3.98 µM [falling, full curve, poor fit]
35 | CC(C)(C)c1ccc(CSc2cnn(C(C)(C)C)c(=O)c2Cl)cc1 | 0.0631 µM [falling, full curve, poor fit]
36 | Oc1c(Cl)c(Cl)c(Cl)c(Cl)c1Cl | 12.6 µM [falling, full curve, poor fit]
37 | Cc1cc(O)c2c(c1)C(=O)c1cc(O)cc(O)c1C2=O | 10 µM [falling, full curve, poor fit]
38 | O=[N+]([O-])c1cc(C(F)(F)F)c(Cl)c([N+](=O)[O-])c1Nc1ncc(C(F)(F)F)cc1Cl | 28.2 µM [falling, partial curve]

Three compounds from above, arranged by molecular weight, smallest number first.
Row | Structure (SMILES) | AC50
22 | ClC=CCl | 3.16 µM [falling, partial curve, poor fit]
12 | CC(C)(C)c1cc(O)ccc1O | 28.2 µM [falling, partial curve, poor fit] and 44.7 µM [falling, single point]
35 | CC(C)(C)c1ccc(CSc2cnn(C(C)(C)C)c(=O)c2Cl)cc1 | 0.0631 µM [falling, full curve, poor fit]
